PubChem BioAssay AID1224830 – NIAID, 2016

Aim: 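Host factors that control LPS-induced TNF expression in human macrophages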 (primary screen)
System: human THP-1 monocytic leukaemia cells, TNF dual-luciferase reporter clone, PMA-differentiated to macrophage-like cells
Reagent: siRNA pool against human genes, 50 nM
Time to read-out: LPS for 4 h, given about 3 days after siRNA transfection
Treatment: bacterial LPS (TLR4 ligand), 10 ng/ml
Read-out: 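TNF firefly reporter luminescence divided by renilla, normalised to the plate median, then turned into a robust z-score for each replicate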
Scale: TNF reporter robust z-score: higher = stronger TNF reporter response to LPS
Call rule: 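a well is active when its z-score exceeds 2.8 or falls below -1.5; control wells carry no call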
The whole screen tested about 18,000 reagents; this is a part drawn at random. About 2,900 of them (16%) count as active. 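Calls are made per well; low scores hint the gene aids the LPS response, high scores that it dampens it.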 A number with no mark means an inactive call. Repeated entries: four replicate wells of each siRNA pool. Reagent sequences are not shown.

| Target gene | PubChem SID | TNF reporter robust z-score |
| --- | --- | --- |
| CIAO2B | SID315456825 | 0.31 |
| CIAO2B | SID315456825 | -0.08 |
| CIAO2B | SID315456825 | 0.06 |
| CIAO2B | SID315456825 | 0.66 |
| PRPSAP2 | SID315450853 | 0.34 |
| PRPSAP2 | SID315450853 | 0.67 |
| PRPSAP2 | SID315450853 | 0.49 |
| PRPSAP2 | SID315450853 | 1.17 |
| CNTF | SID315448004 | -0.33 |
| CNTF | SID315448004 | 0.46 |
| CNTF | SID315448004 | 1.36 |
| CNTF | SID315448004 | 0.02 |
| PARP15 | SID315462828 | -0.47 |
| PARP15 | SID315462828 | -1.7 (active) |
| PARP15 | SID315462828 | -0.25 |
| PARP15 | SID315462828 | 0.31 |
| LINC00336 | SID315464779 | 0.78 |
| LINC00336 | SID315464779 | 1.92 |
| LINC00336 | SID315464779 | 0.9 |
| LINC00336 | SID315464779 | 1.05 |
| KLK5 | SID315455483 | -0.32 |
| KLK5 | SID315455483 | -0.54 |
| KLK5 | SID315455483 | 0.2 |
| KLK5 | SID315455483 | 0.85 |
| PCSK7 | SID315453091 | -0.71 |
| PCSK7 | SID315453091 | 0.41 |
| PCSK7 | SID315453091 | -0.73 |
| PCSK7 | SID315453091 | 0.02 |
| CIDEC | SID315458771 | 0.85 |
| CIDEC | SID315458771 | 1.12 |
| CIDEC | SID315458771 | 1.28 |
| CIDEC | SID315458771 | 1.87 |
| SNRNP70 | SID315451553 | 0.65 |
| SNRNP70 | SID315451553 | 3.27 (active) |
| SNRNP70 | SID315451553 | 3.15 (active) |
| SNRNP70 | SID315451553 | 2.63 |
| EPB41L4A | SID315458822 | -0.07 |
| EPB41L4A | SID315458822 | -0.25 |
| EPB41L4A | SID315458822 | -0.56 |
| EPB41L4A | SID315458822 | -0.27 |
| ALOX15B | SID315447287 | 2.12 |
| ALOX15B | SID315447287 | 2.56 |
| ALOX15B | SID315447287 | 1.62 |
| ALOX15B | SID315447287 | 3.71 (active) |
| C9orf43 | SID315463552 | -0.56 |
| C9orf43 | SID315463552 | 0.2 |
| C9orf43 | SID315463552 | -1.18 |
| C9orf43 | SID315463552 | -0.43 |
| TMEM9 | SID315463404 | 0.67 |
| TMEM9 | SID315463404 | 1.36 |
| TMEM9 | SID315463404 | 0.87 |
| TMEM9 | SID315463404 | 0.86 |
| VMA12 | SID315462310 | -0.09 |
| VMA12 | SID315462310 | -0.69 |
| VMA12 | SID315462310 | 0.52 |
| VMA12 | SID315462310 | 0.6 |
| CCN3 | SID315450283 | 0.21 |
| CCN3 | SID315450283 | -0.07 |
| CCN3 | SID315450283 | 0.15 |
| CCN3 | SID315450283 | 0.02 |

Targets listed so far whose gene name begins with E or e:
| Target gene | PubChem SID | TNF reporter robust z-score |
| --- | --- | --- |
| EPB41L4A | SID315458822 | -0.07 |
| EPB41L4A | SID315458822 | -0.25 |
| EPB41L4A | SID315458822 | -0.56 |
| EPB41L4A | SID315458822 | -0.27 |

Further entries follow.
| Target gene | PubChem SID | TNF reporter robust z-score |
| --- | --- | --- |
| MED25 | SID315459964 | 0.04 |
| MED25 | SID315459964 | -0.06 |
| MED25 | SID315459964 | -0.36 |
| MED25 | SID315459964 | -0.34 |
| SNRNP27 | SID315454536 | 0.3 |
| SNRNP27 | SID315454536 | -0.01 |
| SNRNP27 | SID315454536 | -0.06 |
| SNRNP27 | SID315454536 | 3.52 (active) |
| KCNJ5-AS1 | SID315463197 | -0.04 |
| KCNJ5-AS1 | SID315463197 | -0.87 |
| KCNJ5-AS1 | SID315463197 | -0.16 |
| KCNJ5-AS1 | SID315463197 | -0.69 |
| ZNF491 | SID315461680 | 1.39 |
| ZNF491 | SID315461680 | -0.41 |
| ZNF491 | SID315461680 | -0.77 |
| ZNF491 | SID315461680 | -0.82 |
| TTLL12 | SID315455041 | 3.46 (active) |
| TTLL12 | SID315455041 | 1.58 |
| TTLL12 | SID315455041 | 2.31 |
| TTLL12 | SID315455041 | 0.51 |
| FNIP1 | SID315461133 | 0.68 |
| FNIP1 | SID315461133 | 1.14 |
| FNIP1 | SID315461133 | -0.15 |
| FNIP1 | SID315461133 | 0.65 |
| CUEDC2 | SID315459150 | -0.18 |
| CUEDC2 | SID315459150 | 0.37 |
| CUEDC2 | SID315459150 | -0.07 |
| CUEDC2 | SID315459150 | 0.13 |
| ISX | SID315460918 | 2.21 |
| ISX | SID315460918 | 2.45 |
| ISX | SID315460918 | 4.46 (active) |
| ISX | SID315460918 | 1.68 |
| CUL7 | SID315453593 | -0.49 |
| CUL7 | SID315453593 | -0.56 |
| CUL7 | SID315453593 | 1.84 |
| CUL7 | SID315453593 | 0.05 |
| RCN2 | SID315451084 | 10.4 (active) |
| RCN2 | SID315451084 | -1.25 |
| RCN2 | SID315451084 | -0.57 |
| RCN2 | SID315451084 | 2.83 (active) |
| TTLL9 | SID315462808 | 0.41 |
| TTLL9 | SID315462808 | 0.04 |
| TTLL9 | SID315462808 | -0.9 |
| TTLL9 | SID315462808 | -0.47 |
| SNRK | SID315457216 | 0.34 |
| SNRK | SID315457216 | 0.15 |
| SNRK | SID315457216 | 0.18 |
| SNRK | SID315457216 | 2.03 |
| HRH2 | SID315449319 | -2.33 (active) |
| HRH2 | SID315449319 | -1.61 (active) |
| HRH2 | SID315449319 | -0.79 |
| HRH2 | SID315449319 | -1.94 (active) |
